# Reference: the supplement of paper PMC8728848
# The other results are listed elsewhere or left out.
# B1: AFL6 (Aspergillus fumigatus), Q4WKJ1 (protein)
# chain: MSFHLTAEDIRIEDGHRLVARLRNADGDLQDASIDLNTCLGNDNGHFQWDGVDFSHSAQDVHFAIEGGGQVPVLRAQLANQDGEFQDADVNLSERIENINGEFVFH
# Columns and labels:
# Assay in all cases: glycan array binding signal (z-score within array); higher = stronger binding
# Details in all cases: glycan notation: IUPAC condensed, linker removed
# [1] = molecular target: Gal(b1-4)GlcNAc(b1-3)Gal(b1-4)GlcNAc(b1-3)[Gal(b1-4)GlcNAc(b1-3)Gal(b1-4)GlcNAc(b1-6)]GalNAc
# Summary of the method: (§1)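 The Consortium for Functional Glycomics database supplied 3228 glycan arrays, of which those lacking an available protein sequence were dropped. The binding signal, a within-array Z-score, was averaged across arrays of the same protein sequence and across linkers. Negative scores can be read as non-binding.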
# [2] = molecular target: Gal(b1-4)GlcNAc(b1-3)Gal(b1-4)GlcNAc(b1-6)[Gal(b1-3)]GalNAc
# Summary of the method: as §1
# [3] = molecular target: Gal(b1-4)GlcNAc(b1-3)Gal(b1-4)[Fuc(a1-3)]GlcNAc(b1-3)Gal(b1-4)[Fuc(a1-3)]GlcNAc
# Summary of the method: as §1
# [4] = molecular target: Gal(b1-4)GlcNAc(b1-3)GalNAc
# Summary of the method: as §1
# [5] = molecular target: Gal(b1-4)GlcNAc(b1-3)[Fuc(a1-3)GlcNAc(b1-6)]Gal(b1-4)Glc
# Summary of the method: as §1
# [6] = molecular target: Gal(b1-4)GlcNAc(b1-3)[Gal(b1-4)GlcNAc(b1-6)]Gal(b1-4)GlcNAc
# Summary of the method: as §1
# [7] = molecular target: Gal(b1-4)GlcNAc(b1-3)[GlcNAc(b1-6)]Gal(b1-4)GlcNAc
# Summary of the method: as §1
# [8] = molecular target: Gal(b1-4)GlcNAc(b1-6)Gal(b1-4)GlcNAc
# Summary of the method: as §1
# [9] = molecular target: Gal(b1-4)GlcNAc(b1-6)GalNAc
# Summary of the method: as §1
# [10] = molecular target: Gal(b1-4)GlcNAc(b1-6)[Gal(b1-3)]GalNAc
# Summary of the method: as §1
# [11] = molecular target: Gal(b1-4)GlcNAc(b1-6)[Gal(b1-4)GlcNAc(b1-3)]GalNAc
# Summary of the method: as §1
# Gal(b1-4)GlcNAc6P = molecular target: Gal(b1-4)GlcNAc6P
# Summary of the method: as §1
# Gal(b1-6)Gal = molecular target: Gal(b1-6)Gal
# Summary of the method: as §1
# Gal3S(b1-3)GalNAc = molecular target: Gal3S(b1-3)GalNAc
# Summary of the method: as §1
# Gal3S(b1-3)GlcNAc = molecular target: Gal3S(b1-3)GlcNAc
# Summary of the method: as §1
# [12] = molecular target: Gal3S(b1-3)[Fuc(a1-4)]GlcNAc
# Summary of the method: as §1
# Gal3S(b1-4)Glc = molecular target: Gal3S(b1-4)Glc
# Summary of the method: as §1
# Gal3S(b1-4)Glc6S = molecular target: Gal3S(b1-4)Glc6S
# Summary of the method: as §1
# Gal3S(b1-4)GlcNAc = molecular target: Gal3S(b1-4)GlcNAc
# Summary of the method: as §1
# [13] = molecular target: Gal3S(b1-4)[Fuc(a1-3)]Glc6S
# Summary of the method: as §1
# [14] = molecular target: Gal3S(b1-4)[Fuc(a1-3)]GlcNAc
# Summary of the method: as §1
# [15] = molecular target: Gal3S(b1-4)[Fuc(a1-3)]GlcNAc6S
# Summary of the method: as §1
# Gal3S4S(b1-4)GlcNAc = molecular target: Gal3S4S(b1-4)GlcNAc
# Summary of the method: as §1
# Gal3S6S(b1-4)GlcNAc = molecular target: Gal3S6S(b1-4)GlcNAc
# Summary of the method: as §1
# Gal3S6S(b1-4)GlcNAc6S = molecular target: Gal3S6S(b1-4)GlcNAc6S
# Summary of the method: as §1
# Gal4S(b1-4)GlcNAc = molecular target: Gal4S(b1-4)GlcNAc
# Summary of the method: as §1
# Gal4S6S(b1-4)GlcNAc = molecular target: Gal4S6S(b1-4)GlcNAc
# Summary of the method: as §1
# Gal6P(b1-4)GlcNAc = molecular target: Gal6P(b1-4)GlcNAc
# Summary of the method: as §1
# Gal6S(b1-3)GlcNAc = molecular target: Gal6S(b1-3)GlcNAc
# Summary of the method: as §1
# Gal6S(b1-3)GlcNAc6S = molecular target: Gal6S(b1-3)GlcNAc6S
# Summary of the method: as §1
# Gal6S(b1-4)Glc = molecular target: Gal6S(b1-4)Glc
# Summary of the method: as §1
# Gal6S(b1-4)Glc6S = molecular target: Gal6S(b1-4)Glc6S
# Summary of the method: as §1
# Gal6S(b1-4)GlcNAc = molecular target: Gal6S(b1-4)GlcNAc
# Summary of the method: as §1
# Gal6S(b1-4)GlcNAc6S = molecular target: Gal6S(b1-4)GlcNAc6S
# Summary of the method: as §1
# GalNAc(a1-3)Gal = molecular target: GalNAc(a1-3)Gal
# Summary of the method: as §1
# GalNAc(a1-3)GalNAc = molecular target: GalNAc(a1-3)GalNAc
# Summary of the method: as §1
# [16] = molecular target: GalNAc(a1-3)GalNAc(b1-3)Gal(a1-4)Gal(b1-4)Glc
# Summary of the method: as §1
# [17] = molecular target: GalNAc(a1-3)GalNAc(b1-3)Gal(a1-4)Gal(b1-4)GlcNAc
# Summary of the method: as §1
# GalNAc(b1-3)Gal = molecular target: GalNAc(b1-3)Gal
# Summary of the method: as §1
# [18] = molecular target: GalNAc(b1-3)Gal(a1-4)Gal(b1-4)GlcNAc
# Summary of the method: as §1
# [19] = molecular target: GalNAc(b1-3)Gal(a1-4)Gal(b1-4)GlcNAc(b1-3)Gal(b1-4)Glc
# Summary of the method: as §1
# [20] = molecular target: GalNAc(b1-3)Gal(a1-6)Gal(b1-4)Glc
# Summary of the method: as §1
# GalNAc(b1-3)GalNAc = molecular target: GalNAc(b1-3)GalNAc
# Summary of the method: as §1
# GalNAc(b1-3)GlcNAc = molecular target: GalNAc(b1-3)GlcNAc
# Summary of the method: as §1
# GalNAc(b1-4)Gal(b1-4)Glc = molecular target: GalNAc(b1-4)Gal(b1-4)Glc
# Summary of the method: as §1
binder,measurement,setting,value
B1,glycan array binding signal (z-score),[1],4.09
same,glycan array binding signal (z-score),[2],0.866
same,glycan array binding signal (z-score),[3],0.241
same,glycan array binding signal (z-score),[4],-0.442
same,glycan array binding signal (z-score),[5],-0.272
same,glycan array binding signal (z-score),[6],-0.388
same,glycan array binding signal (z-score),[7],-0.687
same,glycan array binding signal (z-score),[8],-0.693
same,glycan array binding signal (z-score),[9],0.156
same,glycan array binding signal (z-score),[10],-0.275
same,glycan array binding signal (z-score),[11],0.337
same,glycan array binding signal (z-score),Gal(b1-4)GlcNAc6P,-0.065
same,glycan array binding signal (z-score),Gal(b1-6)Gal,0.135
same,glycan array binding signal (z-score),Gal3S(b1-3)GalNAc,-0.743
same,glycan array binding signal (z-score),Gal3S(b1-3)GlcNAc,-0.074
same,glycan array binding signal (z-score),[12],-0.44
same,glycan array binding signal (z-score),Gal3S(b1-4)Glc,-0.364
same,glycan array binding signal (z-score),Gal3S(b1-4)Glc6S,0.622
same,glycan array binding signal (z-score),Gal3S(b1-4)GlcNAc,-0.043
same,glycan array binding signal (z-score),[13],0.32
same,glycan array binding signal (z-score),[14],0.11
same,glycan array binding signal (z-score),[15],-0.4
same,glycan array binding signal (z-score),Gal3S4S(b1-4)GlcNAc,0.473
same,glycan array binding signal (z-score),Gal3S6S(b1-4)GlcNAc,0.192
same,glycan array binding signal (z-score),Gal3S6S(b1-4)GlcNAc6S,-0.064
same,glycan array binding signal (z-score),Gal4S(b1-4)GlcNAc,-0.569
same,glycan array binding signal (z-score),Gal4S6S(b1-4)GlcNAc,0.69
same,glycan array binding signal (z-score),Gal6P(b1-4)GlcNAc,-0.655
same,glycan array binding signal (z-score),Gal6S(b1-3)GlcNAc,-0.443
same,glycan array binding signal (z-score),Gal6S(b1-3)GlcNAc6S,-0.708
same,glycan array binding signal (z-score),Gal6S(b1-4)Glc,-0.525
same,glycan array binding signal (z-score),Gal6S(b1-4)Glc6S,-0.382
same,glycan array binding signal (z-score),Gal6S(b1-4)GlcNAc,-0.617
same,glycan array binding signal (z-score),Gal6S(b1-4)GlcNAc6S,-0.589
same,glycan array binding signal (z-score),GalNAc(a1-3)Gal,-0.189
same,glycan array binding signal (z-score),GalNAc(a1-3)GalNAc,-0.209
same,glycan array binding signal (z-score),[16],-1.16
same,glycan array binding signal (z-score),[17],0.088
same,glycan array binding signal (z-score),GalNAc(b1-3)Gal,0.391
same,glycan array binding signal (z-score),[18],-0.5
same,glycan array binding signal (z-score),[19],-0.055
same,glycan array binding signal (z-score),[20],-0.139
same,glycan array binding signal (z-score),GalNAc(b1-3)GalNAc,-0.414
same,glycan array binding signal (z-score),GalNAc(b1-3)GlcNAc,0.165
same,glycan array binding signal (z-score),GalNAc(b1-4)Gal(b1-4)Glc,0.175

# Laid out differently: entries from further up
binder	measurement	setting	value
B1	glycan array binding signal (z-score)	[1]	4.09
same	glycan array binding signal (z-score)	[2]	0.866
same	glycan array binding signal (z-score)	[3]	0.241
